According to the supplement of paper PMC12823440, “Inhibitors supercharge kinase turnover through native proteolytic circuits” (Nature, 2025):
Structures can show the parent of a compound that is named as a salt. The list shows a part of the results. Hit calls seldom repeat between salt and free forms of one compound.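 In K562 cells expressing nanoluciferase-fused kinases, luminescence was recorded at 4 h intervals between 2 and 18 h, normalized as percent of control with DMSO at 100% and a positive control at 0%. A significant (2 sigma) signal drop marks a time point as decreased. The authors' rule for a hit is not shown and takes in more than the number of time points.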

Protein sequences, listed by entry. Tags and fused reporters are not part of them.
UniProt P29317, whole entry: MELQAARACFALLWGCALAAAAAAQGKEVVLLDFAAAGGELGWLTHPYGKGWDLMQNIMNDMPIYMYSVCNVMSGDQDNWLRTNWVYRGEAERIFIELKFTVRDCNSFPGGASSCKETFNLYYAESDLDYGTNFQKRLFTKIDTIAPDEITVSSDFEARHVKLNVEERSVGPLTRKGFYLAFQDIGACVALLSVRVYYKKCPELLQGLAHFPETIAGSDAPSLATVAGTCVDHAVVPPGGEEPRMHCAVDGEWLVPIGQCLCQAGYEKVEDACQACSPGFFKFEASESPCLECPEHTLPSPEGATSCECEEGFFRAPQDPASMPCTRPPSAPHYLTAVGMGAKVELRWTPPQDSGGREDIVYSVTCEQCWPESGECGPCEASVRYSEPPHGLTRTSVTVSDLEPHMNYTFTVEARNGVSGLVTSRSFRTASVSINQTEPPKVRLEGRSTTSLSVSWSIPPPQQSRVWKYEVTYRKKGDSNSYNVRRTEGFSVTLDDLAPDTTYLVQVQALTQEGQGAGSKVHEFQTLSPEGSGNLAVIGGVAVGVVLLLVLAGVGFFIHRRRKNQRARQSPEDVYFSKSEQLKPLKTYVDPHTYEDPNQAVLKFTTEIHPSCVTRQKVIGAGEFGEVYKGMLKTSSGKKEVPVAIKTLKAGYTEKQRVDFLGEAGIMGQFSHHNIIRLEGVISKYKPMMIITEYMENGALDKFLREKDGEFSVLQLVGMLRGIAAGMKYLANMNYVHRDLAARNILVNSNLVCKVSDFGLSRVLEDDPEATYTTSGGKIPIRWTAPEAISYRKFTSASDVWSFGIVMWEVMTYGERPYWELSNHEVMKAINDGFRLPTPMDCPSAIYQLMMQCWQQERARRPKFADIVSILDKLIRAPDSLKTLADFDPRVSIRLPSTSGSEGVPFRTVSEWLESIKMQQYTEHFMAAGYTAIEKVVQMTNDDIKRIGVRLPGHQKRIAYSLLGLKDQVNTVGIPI
UniProt P21860, whole entry: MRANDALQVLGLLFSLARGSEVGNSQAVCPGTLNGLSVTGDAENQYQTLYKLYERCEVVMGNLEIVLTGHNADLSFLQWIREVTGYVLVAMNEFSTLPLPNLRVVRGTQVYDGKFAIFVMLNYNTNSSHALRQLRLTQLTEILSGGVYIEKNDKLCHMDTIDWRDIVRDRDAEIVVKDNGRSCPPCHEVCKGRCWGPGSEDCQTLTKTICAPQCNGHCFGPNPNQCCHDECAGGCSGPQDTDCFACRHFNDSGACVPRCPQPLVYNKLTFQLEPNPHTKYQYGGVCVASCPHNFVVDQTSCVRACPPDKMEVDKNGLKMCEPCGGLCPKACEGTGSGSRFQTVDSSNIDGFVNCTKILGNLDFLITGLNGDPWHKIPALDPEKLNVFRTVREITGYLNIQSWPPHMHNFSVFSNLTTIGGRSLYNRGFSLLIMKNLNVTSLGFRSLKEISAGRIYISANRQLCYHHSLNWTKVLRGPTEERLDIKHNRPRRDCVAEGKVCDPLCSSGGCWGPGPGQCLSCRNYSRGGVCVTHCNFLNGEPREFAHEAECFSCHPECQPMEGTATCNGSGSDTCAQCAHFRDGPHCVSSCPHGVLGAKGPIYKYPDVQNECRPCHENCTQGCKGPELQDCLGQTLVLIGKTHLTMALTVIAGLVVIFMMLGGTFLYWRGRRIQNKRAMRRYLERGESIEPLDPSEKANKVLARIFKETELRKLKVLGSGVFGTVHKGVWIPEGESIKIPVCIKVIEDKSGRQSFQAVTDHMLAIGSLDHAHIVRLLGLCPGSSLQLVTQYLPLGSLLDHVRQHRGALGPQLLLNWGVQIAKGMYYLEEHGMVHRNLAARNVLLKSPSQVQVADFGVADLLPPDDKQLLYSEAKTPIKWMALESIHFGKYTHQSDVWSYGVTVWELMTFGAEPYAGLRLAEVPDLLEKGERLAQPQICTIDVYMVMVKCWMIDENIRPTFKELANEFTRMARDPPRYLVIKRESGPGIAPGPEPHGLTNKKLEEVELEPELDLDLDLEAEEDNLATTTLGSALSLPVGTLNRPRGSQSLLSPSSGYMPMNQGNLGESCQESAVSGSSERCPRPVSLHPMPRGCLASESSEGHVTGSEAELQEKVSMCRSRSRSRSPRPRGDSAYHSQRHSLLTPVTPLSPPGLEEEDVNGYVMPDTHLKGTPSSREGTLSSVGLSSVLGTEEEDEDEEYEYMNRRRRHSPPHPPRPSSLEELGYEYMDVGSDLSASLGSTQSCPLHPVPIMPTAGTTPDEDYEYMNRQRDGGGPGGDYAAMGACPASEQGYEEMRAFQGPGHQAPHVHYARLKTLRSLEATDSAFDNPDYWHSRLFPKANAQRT
UniProt Q15303, whole entry R711C: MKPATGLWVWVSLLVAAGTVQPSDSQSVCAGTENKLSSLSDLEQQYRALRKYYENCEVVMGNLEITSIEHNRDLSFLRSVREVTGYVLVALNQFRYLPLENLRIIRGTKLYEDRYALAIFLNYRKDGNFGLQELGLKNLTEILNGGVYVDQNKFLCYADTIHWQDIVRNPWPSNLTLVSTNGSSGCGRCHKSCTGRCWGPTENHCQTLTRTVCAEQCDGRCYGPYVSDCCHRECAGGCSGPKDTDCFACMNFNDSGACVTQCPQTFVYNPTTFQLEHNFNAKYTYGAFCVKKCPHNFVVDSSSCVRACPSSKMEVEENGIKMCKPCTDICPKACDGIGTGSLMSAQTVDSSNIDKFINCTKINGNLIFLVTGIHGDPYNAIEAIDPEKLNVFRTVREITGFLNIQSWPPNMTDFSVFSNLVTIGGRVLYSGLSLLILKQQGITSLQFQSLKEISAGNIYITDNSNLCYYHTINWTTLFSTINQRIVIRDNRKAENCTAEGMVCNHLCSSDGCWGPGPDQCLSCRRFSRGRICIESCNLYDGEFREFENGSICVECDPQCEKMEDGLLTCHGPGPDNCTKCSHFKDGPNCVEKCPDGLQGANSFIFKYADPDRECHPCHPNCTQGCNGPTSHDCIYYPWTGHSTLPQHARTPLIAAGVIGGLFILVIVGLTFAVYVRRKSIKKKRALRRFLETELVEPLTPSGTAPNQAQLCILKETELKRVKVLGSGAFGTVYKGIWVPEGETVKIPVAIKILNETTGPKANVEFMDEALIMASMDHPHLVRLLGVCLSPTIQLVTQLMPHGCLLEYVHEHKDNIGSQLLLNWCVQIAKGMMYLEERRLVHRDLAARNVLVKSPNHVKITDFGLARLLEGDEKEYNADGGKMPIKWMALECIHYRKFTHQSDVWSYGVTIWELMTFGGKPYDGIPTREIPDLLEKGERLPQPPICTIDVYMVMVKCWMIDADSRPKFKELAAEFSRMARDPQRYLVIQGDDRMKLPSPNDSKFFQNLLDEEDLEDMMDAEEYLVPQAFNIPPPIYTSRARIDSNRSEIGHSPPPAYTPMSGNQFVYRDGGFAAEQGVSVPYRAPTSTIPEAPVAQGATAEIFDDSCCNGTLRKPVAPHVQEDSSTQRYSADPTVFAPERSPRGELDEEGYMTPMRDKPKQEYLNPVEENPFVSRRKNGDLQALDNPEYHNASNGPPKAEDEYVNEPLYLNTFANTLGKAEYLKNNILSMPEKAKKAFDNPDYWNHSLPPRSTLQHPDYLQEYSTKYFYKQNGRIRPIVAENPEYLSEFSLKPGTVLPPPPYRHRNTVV

Experiments:
Experiment in all cases: kinase-Nluc reporter destabilization hit call (1 = scored as downregulated) (binary); higher = compound decreases kinase abundance
Settings in all cases: K562, 2-18 h
[1] = molecular target: EGFR (UniProt P00533)
[2] = molecular target: EGFR_G719S (UniProt P00533)
[3] = molecular target: EGFR_G719S_T790M (UniProt P00533)
[4] = molecular target: EGFR_L718V (UniProt P00533)
[5] = molecular target: EGFR_L858R (UniProt P00533)
[6] = molecular target: EGFR_L861Q (UniProt P00533)
[7] = molecular target: EGFR_T790M (UniProt P00533)
[8] = molecular target: EPHA2 (UniProt P29317)
[9] = molecular target: ERBB3 (UniProt P21860)
[10] = molecular target: ERBB4_R711C (clone: ERBB4_mut) (UniProt Q15303)

Measured: kinase-Nluc reporter destabilization hit call

CC(=O)Nc1cccc(-n2c(=O)n(C3CC3)c(=O)c3c(Nc4ccc(I)cc4F)n(C)c(=O)c(C)c32)c1 [Trametinib]
inactive: [1]; 10 µM 0 | [2]; 10 µM 0 | [3]; 10 µM 0 | [4]; 10 µM 0 | [5]; 10 µM 0 | [6]; 10 µM 0 | [7]; 10 µM 0 | [8]; 10 µM 0 | [9]; 10 µM 0 | [10]; 10 µM 0

Nc1cncc(-c2cn3ccnc3c(Nc3ccc(N4CCN(C5COC5)CC4)cc3)n2)n1 [Lanraplenib]
inactive: [1]; 10 µM 0 | [2]; 10 µM 0 | [3]; 10 µM 0 | [4]; 10 µM 0 | [5]; 10 µM 0 | [6]; 10 µM 0 | [7]; 10 µM 0 | [8]; 10 µM 0 | [9]; 10 µM 0 | [10]; 10 µM 0

N#CCC1(n2cc(-c3ncnc4[nH]ccc34)cn2)CN(C2CCN(C(=O)c3ccnc(C(F)(F)F)c3F)CC2)C1 [Itacitinib]
inactive: [1]; 10 µM 0 | [2]; 10 µM 0 | [3]; 10 µM 0 | [4]; 10 µM 0 | [5]; 10 µM 0 | [6]; 10 µM 0 | [7]; 10 µM 0 | [8]; 10 µM 0 | [9]; 10 µM 0 | [10]; 10 µM 0

Nc1cncc(-c2cn3ccnc3c(Nc3ccc(N4CCN(C5COC5)CC4)cc3)n2)n1 [Lanraplenib (succinate)]
inactive: [1]; 10 µM 0 | [2]; 10 µM 0 | [3]; 10 µM 0 | [4]; 10 µM 0 | [5]; 10 µM 0 | [6]; 10 µM 0 | [7]; 10 µM 0 | [8]; 10 µM 0 | [9]; 10 µM 0 | [10]; 10 µM 0

O=C1Nc2ccccc2/C1=C/c1ccccn1 [GSK-3β inhibitor 1]
inactive: [1]; 10 µM 0 | [2]; 10 µM 0 | [3]; 10 µM 0 | [4]; 10 µM 0 | [5]; 10 µM 0 | [6]; 10 µM 0 | [7]; 10 µM 0 | [8]; 10 µM 0 | [9]; 10 µM 0 | [10]; 10 µM 0

N#CCC1(n2cc(-c3ncnc4[nH]ccc34)cn2)CN(C2CCN(C(=O)c3ccnc(C(F)(F)F)c3F)CC2)C1 [Itacitinib adipate]
inactive: [1]; 10 µM 0 | [2]; 10 µM 0 | [3]; 10 µM 0 | [4]; 10 µM 0 | [5]; 10 µM 0 | [6]; 10 µM 0 | [7]; 10 µM 0 | [8]; 10 µM 0 | [9]; 10 µM 0 | [10]; 10 µM 0

COC(=O)[C@H](CC(C)C)NC(=O)c1ccc(NC[C@@H](N)CS)cc1-c1cccc2ccccc12 [GGTI298 (Trifluoroacetate)]
inactive: [1]; 10 µM 0 | [2]; 10 µM 0 | [3]; 10 µM 0 | [4]; 10 µM 0 | [5]; 10 µM 0 | [6]; 10 µM 0 | [7]; 10 µM 0 | [8]; 10 µM 0 | [9]; 10 µM 0 | [10]; 10 µM 0

CS(=O)(=O)N1CCN(Cc2cc3nc(-c4cccc5[nH]ncc45)nc(N4CCOCC4)c3s2)CC1 [Pictilisib]
inactive: [1]; 10 µM 0 | [2]; 10 µM 0 | [3]; 10 µM 0 | [4]; 10 µM 0 | [5]; 10 µM 0 | [6]; 10 µM 0 | [7]; 10 µM 0 | [8]; 10 µM 0 | [9]; 10 µM 0 | [10]; 10 µM 0

CNC(=O)c1cc(Oc2ccc(NC(=O)Nc3ccc(Cl)c(C(F)(F)F)c3)c(F)c2)ccn1 [Regorafenib (monohydrate)]
inactive: [1]; 2.5 µM 0 | [2]; 2.5 µM 0 | [3]; 2.5 µM 0 | [4]; 2.5 µM 0 | [5]; 2.5 µM 0 | [6]; 2.5 µM 0 | [7]; 2.5 µM 0 | [8]; 2.5 µM 0 | [9]; 2.5 µM 0 | [10]; 2.5 µM 0

CCc1nc(C(N)=O)c(Nc2ccc(N3CCC(N4CCN(C)CC4)CC3)c(OC)c2)nc1NC1CCOCC1 [Gilteritinib hemifumarate]
inactive: [1]; 2 µM 0 | [2]; 2 µM 0 | [3]; 2 µM 0 | [4]; 2 µM 0 | [5]; 2 µM 0 | [6]; 2 µM 0 | [7]; 2 µM 0 | [8]; 2 µM 0 | [9]; 2 µM 0 | [10]; 2 µM 0

C=CC(=O)Nc1cc(Nc2ncc(C(=O)OC(C)C)c(-c3cn(C)c4ccccc34)n2)c(OC)cc1N(C)CCN(C)C [Mobocertinib]
inactive: [1]; 10 µM 0 | [2]; 10 µM 0 | [3]; 10 µM 0 | [4]; 10 µM 0 | [5]; 10 µM 0 | [6]; 10 µM 0 | [7]; 10 µM 0 | [8]; 10 µM 0 | [9]; 10 µM 0 | [10]; 10 µM 0

CCN(CC)Cc1ccc(OC)c(-c2cc3c(-c4ccc(C(=O)O)c(C(C)C)c4)ccnc3[nH]2)c1
inactive: [1]; 2.5 µM 0 | [1]; 10 µM 0 | [2]; 2.5 µM 0 | [2]; 10 µM 0 | [3]; 2.5 µM 0 | [3]; 10 µM 0 | [4]; 2.5 µM 0 | [4]; 10 µM 0 | [5]; 2.5 µM 0 | [5]; 10 µM 0 | [6]; 2.5 µM 0 | [6]; 10 µM 0 | [7]; 2.5 µM 0 | [7]; 10 µM 0 | [8]; 2.5 µM 0 | [8]; 10 µM 0 | [9]; 2.5 µM 0 | [9]; 10 µM 0 | [10]; 2.5 µM 0 | [10]; 10 µM 0

COc1ccc(S(=O)(=O)N(CCO)c2ccccc2CN(C)C/C=C/c2ccc(Cl)cc2)cc1 [KN-93 (phosphate)]
inactive: [1]; 2.5 µM 0 | [2]; 2.5 µM 0 | [3]; 2.5 µM 0 | [4]; 2.5 µM 0 | [5]; 2.5 µM 0 | [6]; 2.5 µM 0 | [7]; 2.5 µM 0 | [8]; 2.5 µM 0 | [9]; 2.5 µM 0 | [10]; 2.5 µM 0

CNc1ncc2cc(-c3ccc(-c4cccc(C)n4)cc3Cl)c(=O)n(C[C@H]3OC[C@H](N)CO3)c2n1 [G-5555 (hydrochloride)]
inactive: [1]; 10 µM 0 | [2]; 10 µM 0 | [3]; 10 µM 0 | [4]; 10 µM 0 | [5]; 10 µM 0 | [6]; 10 µM 0 | [7]; 10 µM 0 | [8]; 10 µM 0 | [9]; 10 µM 0 | [10]; 10 µM 0

CCc1nc(C(N)=O)c(Nc2ccc(N3CCC(N4CCN(C)CC4)CC3)c(OC)c2)nc1NC1CCOCC1 [Gilteritinib]
inactive: [1]; 2 µM 0 | [2]; 2 µM 0 | [3]; 2 µM 0 | [4]; 2 µM 0 | [5]; 2 µM 0 | [6]; 2 µM 0 | [7]; 2 µM 0 | [8]; 2 µM 0 | [9]; 2 µM 0 | [10]; 2 µM 0

N=C(N)NC(=O)c1nc(Cl)c(N)nc1N [Amiloride (hydrochloride)]
inactive: [1]; 10 µM 0 | [2]; 10 µM 0 | [3]; 10 µM 0 | [4]; 10 µM 0 | [5]; 10 µM 0 | [6]; 10 µM 0 | [7]; 10 µM 0 | [8]; 10 µM 0 | [9]; 10 µM 0 | [10]; 10 µM 0

FC(F)(F)c1ccc(CNc2ccc(Cc3c[nH]c4ncc(Cl)cc34)cn2)cn1 [Pexidartinib (hydrochloride)]
inactive: [1]; 10 µM 0 | [2]; 10 µM 0 | [3]; 10 µM 0 | [4]; 10 µM 0 | [5]; 10 µM 0 | [6]; 10 µM 0 | [7]; 10 µM 0 | [8]; 10 µM 0 | [9]; 10 µM 0 | [10]; 10 µM 0

CCS(=O)(=O)N1CC(CC#N)(n2cc(-c3ncnc4[nH]ccc34)cn2)C1 [Baricitinib]
inactive: [1]; 10 µM 0 | [2]; 10 µM 0 | [3]; 10 µM 0 | [4]; 10 µM 0 | [5]; 10 µM 0 | [6]; 10 µM 0 | [7]; 10 µM 0 | [8]; 10 µM 0 | [9]; 10 µM 0 | [10]; 10 µM 0

C#Cc1cccc(Nc2ncnc3cc4c(cc23)OCCOCCOCCO4)c1 [Icotinib (Hydrochloride)]
inactive: [1]; 10 µM 0 | [2]; 10 µM 0 | [3]; 10 µM 0 | [4]; 10 µM 0 | [5]; 10 µM 0 | [6]; 10 µM 0 | [7]; 10 µM 0 | [8]; 10 µM 0 | [9]; 10 µM 0 | [10]; 10 µM 0

Random excerpt: 2 records from the list, in no set order.
CCS(=O)(=O)N1CC(CC#N)(n2cc(-c3ncnc4[nH]ccc34)cn2)C1 [Baricitinib]
inactive: [1]; 10 µM 0 | [2]; 10 µM 0 | [3]; 10 µM 0 | [4]; 10 µM 0 | [5]; 10 µM 0 | [6]; 10 µM 0 | [7]; 10 µM 0 | [8]; 10 µM 0 | [9]; 10 µM 0 | [10]; 10 µM 0

C#Cc1cccc(Nc2ncnc3cc4c(cc23)OCCOCCOCCO4)c1 [Icotinib (Hydrochloride)]
inactive: [1]; 10 µM 0 | [2]; 10 µM 0 | [3]; 10 µM 0 | [4]; 10 µM 0 | [5]; 10 µM 0 | [6]; 10 µM 0 | [7]; 10 µM 0 | [8]; 10 µM 0 | [9]; 10 µM 0 | [10]; 10 µM 0

(cont.)

CCN(CC)CC(=O)Nc1c(C)cccc1C [Lidocaine (hydrochloride)]
inactive: [1]; 10 µM 0 | [2]; 10 µM 0 | [3]; 10 µM 0 | [4]; 10 µM 0 | [5]; 10 µM 0 | [6]; 10 µM 0 | [7]; 10 µM 0 | [8]; 10 µM 0 | [9]; 10 µM 0 | [10]; 10 µM 0

C=CC(=O)N1CCN(c2ncnc3c(F)c(-c4c(O)cccc4F)c(Cl)cc23)CC1
inactive: [1]; 2.5 µM 0 | [1]; 10 µM 0 | [2]; 2.5 µM 0 | [2]; 10 µM 0 | [3]; 2.5 µM 0 | [3]; 10 µM 0 | [4]; 2.5 µM 0 | [4]; 10 µM 0 | [5]; 2.5 µM 0 | [5]; 10 µM 0 | [6]; 2.5 µM 0 | [6]; 10 µM 0 | [7]; 2.5 µM 0 | [7]; 10 µM 0 | [8]; 2.5 µM 0 | [8]; 10 µM 0 | [9]; 2.5 µM 0 | [9]; 10 µM 0 | [10]; 2.5 µM 0 | [10]; 10 µM 0

Clc1ccc(C2(c3ccc(-c4cn[nH]c4)cc3)CCNCC2)cc1
inactive: [1]; 10 µM 0 | [2]; 10 µM 0 | [3]; 10 µM 0 | [4]; 10 µM 0 | [5]; 10 µM 0 | [6]; 10 µM 0 | [7]; 10 µM 0 | [8]; 10 µM 0 | [9]; 10 µM 0 | [10]; 10 µM 0

COc1ccc2c(c1)C(c1ccc(F)cc1)=C(CN1CCCC1)CO2
inactive: [1]; 10 µM 0 | [2]; 10 µM 0 | [3]; 10 µM 0 | [4]; 10 µM 0 | [5]; 10 µM 0 | [6]; 10 µM 0 | [7]; 10 µM 0 | [8]; 10 µM 0 | [9]; 10 µM 0 | [10]; 10 µM 0

Cc1cc(Nc2ncc(Cl)c(Nc3ccccc3S(=O)(=O)C(C)C)n2)c(OC(C)C)cc1C1CCNCC1 [Ceritinib]
inactive: [1]; 2.5 µM 0 | [2]; 2.5 µM 0 | [3]; 2.5 µM 0 | [4]; 2.5 µM 0 | [5]; 2.5 µM 0 | [6]; 2.5 µM 0 | [7]; 2.5 µM 0 | [8]; 2.5 µM 0 | [9]; 2.5 µM 0 | [10]; 2.5 µM 0

CC(=O)Nc1cccc(-n2c(=O)n(C3CC3)c(=O)c3c(Nc4ccc(I)cc4F)n(C)c(=O)c(C)c32)c1 [Trametinib (DMSO solvate)]
inactive: [1]; 10 µM 0 | [2]; 10 µM 0 | [3]; 10 µM 0 | [4]; 10 µM 0 | [5]; 10 µM 0 | [6]; 10 µM 0 | [7]; 10 µM 0 | [8]; 10 µM 0 | [9]; 10 µM 0 | [10]; 10 µM 0

C=CC(=O)Nc1cc(Nc2ncc(C(=O)OC(C)C)c(-c3cn(C)c4ccccc34)n2)c(OC)cc1N(C)CCN(C)C [Mobocertinib (succinate)]
inactive: [1]; 10 µM 0 | [2]; 10 µM 0 | [3]; 10 µM 0 | [4]; 10 µM 0 | [5]; 10 µM 0 | [6]; 10 µM 0 | [7]; 10 µM 0 | [8]; 10 µM 0 | [9]; 10 µM 0 | [10]; 10 µM 0

C=CC(=O)Nc1cc2c(Nc3ccc(F)c(Cl)c3)ncnc2cc1C#CC(C)(C)N1CCN(C)CC1
inactive: [1]; 2.5 µM 0 | [2]; 2.5 µM 0 | [3]; 2.5 µM 0 | [4]; 2.5 µM 0 | [5]; 2.5 µM 0 | [6]; 2.5 µM 0 | [7]; 2.5 µM 0 | [8]; 2.5 µM 0 | [9]; 2.5 µM 0 | [10]; 2.5 µM 0
